No constants are given. Whether binding was seen depends on the method and setting. Binding can be weak; no strength is given.
Biological target: T1, Recombinant C. albicans Adh1 (C. albicans SC5314) (UniProt P43067)
T1 sequence: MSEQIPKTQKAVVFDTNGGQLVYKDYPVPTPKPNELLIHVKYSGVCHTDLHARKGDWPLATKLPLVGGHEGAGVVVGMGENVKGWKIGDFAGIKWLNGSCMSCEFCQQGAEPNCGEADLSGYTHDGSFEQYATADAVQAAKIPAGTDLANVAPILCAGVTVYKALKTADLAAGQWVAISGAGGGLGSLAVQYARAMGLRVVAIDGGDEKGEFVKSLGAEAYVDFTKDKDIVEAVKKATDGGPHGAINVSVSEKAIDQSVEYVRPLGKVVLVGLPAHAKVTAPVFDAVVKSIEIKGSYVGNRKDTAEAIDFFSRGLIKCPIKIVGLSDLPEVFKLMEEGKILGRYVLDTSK
Assay: ELISA; recombinant C. albicans protein (0.5 μg) coated on 96-well plates, blocked with PBS with 5% BSA; human plasminogen (0.5 μg per well) added, 37°C, 1 h; detected with rabbit anti-plasminogen antibody and HRP anti-rabbit IgG; BSA-coated wells deducted; both purified

**Q.** Human plasminogen was tested. Which binding did it give?
**A.** The binding was “binds”.
